The record followed here is paper PMC6033896, “Discovery of Mcl-1 inhibitors from integrated high throughput and virtual screening” (Scientific Reports, 2018).

By UniProt entry, the sequences of proteins in these tests, tags left out.
UniProt Q07820: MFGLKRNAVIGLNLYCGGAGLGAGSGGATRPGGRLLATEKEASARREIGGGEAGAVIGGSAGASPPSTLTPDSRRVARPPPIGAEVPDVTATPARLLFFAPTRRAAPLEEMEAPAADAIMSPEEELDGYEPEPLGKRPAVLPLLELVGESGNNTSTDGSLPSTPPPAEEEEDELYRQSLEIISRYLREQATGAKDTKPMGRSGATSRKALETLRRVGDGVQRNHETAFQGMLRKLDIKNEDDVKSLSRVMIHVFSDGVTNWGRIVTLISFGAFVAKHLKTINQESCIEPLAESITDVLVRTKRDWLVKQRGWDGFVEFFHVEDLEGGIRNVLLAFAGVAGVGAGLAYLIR

Results are given in words; binding and its absence hold for the method and conditions named. Binding seen in cells or lysates may run through a third protein. Some results given as binding are weak or reduced against the parent protein; the word gives no strength.

This test has as its target T1, biotinylated Noxa peptide (18–43 residues) (UniProt Q13794).
T1 sequence (peptide, biotin, position not stated): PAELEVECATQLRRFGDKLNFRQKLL
The test can be described thus: pull-down; biotinylated Noxa peptide incubated overnight at 4 °C with pre-cleared 2LMP lysate (1 mg/mL, CHAPS buffer); pulled down with agarose beads; western blot for Mcl-1; only the target purified. On the technique in general: A western blot detects proteins with antibodies after separation by electrophoresis.

Take “endogenous Mcl-1 (2LMP cells) (from UniProt Q07820 1-350)”: the binding entry was “binds”.
